Measured data: PubChem BioAssay AID1259331 (Drosophila RNAi Screening Center, 2017)
The deposit covers about 3,100 reagents; below is a part drawn at random. Of all reagents, 126 (4.1%) got an active call. 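Calls are per reagent; zinc was so toxic that few knock-downs lowered ATP further, so most hits raise ATP.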 The raw values are shown without normalisation. Entries without a mark were called inactive. Reagents against one gene are numbered here. The record does not give: the amount of reagent.

Screen: 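Knock-downs that alter ATP level after a high zinc chloride dose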 (primary screen)
Cell system: Drosophila S2R+ cells
Reagents: long dsRNA against Drosophila genes
Time to read-out: 5 days (4 days knock-down, then 1 day zinc)
Challenge: zinc chloride at 15 mM final level for 1 day
Measured: 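Luminescent ATP assay standing in for viability; Z score is the mean over three replicate plates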
Reading the numbers: mean Z score: higher = more ATP than other wells, better survival under zinc; ATP luminescence: higher = more ATP, more viable cells
Call rule: 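Hit when the absolute Z score is greater than 1.5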
Meaning of the calls: active = hit, ATP up or down; inactive = not a hit

target gene	reagent no.	mean Z score	ATP luminescence, replicate 1	ATP luminescence, replicate 2
Nup62 (Nucleoporin 62kD)	1	-0.161	30660	30627
laza (lazaro)	1	0.00746	47069	48937
laza (lazaro)	2	0.262	61729	69213
ATP6AP2 (ATPase H+ transporting accessory protein 2)	1	0.121	36559	62977
ATP6AP2 (ATPase H+ transporting accessory protein 2)	2	0.556	57751	71231
Alg14 (ALG14, UDP-N-acetylglucosaminyltransferase subunit)	1	0.353	70081	73752
CG10353	1	-0.31	55588	66360
CG10353	2	0.405	52127	53927
Mdr49 (Multi drug resistance 49)	1	-0.534	28622	25382
Mdr49 (Multi drug resistance 49)	2	-0.185	51458	56842
CG42818	1	-0.574	43399	35976
Ir47a (Ionotropic receptor 47a)	1	0.29	81882	77285
Pvr (PDGF- and VEGF-receptor related)	1	-0.472	49224	49898
Pvr (PDGF- and VEGF-receptor related)	2	-1.37	29907	31502
Pvr (PDGF- and VEGF-receptor related)	3	-1.17	34176	32856
CG33296	1	-0.15	40913	43061
CG33296	2	-0.402	63375	46880
TyrRII (Tyramine receptor II)	1	0.509	70596	67852
nAChRalpha1 (nicotinic Acetylcholine Receptor alpha1)	1	-0.609	66789	49674
nAChRalpha1 (nicotinic Acetylcholine Receptor alpha1)	2	-0.429	36370	51767
Cad74A (Cadherin 74A)	1	0.301	81402	66892
Or85e (Odorant receptor 85e)	1	0.286	33593	68263
Or63a (Odorant receptor 63a)	1	0.101	71145	76496
Culd (CUB and LDLa domain)	1	-0.488	28980	27595
Culd (CUB and LDLa domain)	2	0.358	69144	63907
Grd (Glycine receptor)	1	-0.15	75415	57425
Grd (Glycine receptor)	2	-0.789	46983	51509
CG9825	1	0.177	50652	45217
CG9825	2	-0.0501	54579	52950
stol (stolid)	1	0.0532	49658	38868
stol (stolid)	2	0.301	56173	65021
CG6978	1	-0.737	52861	54819
CG6978	2	-0.24	58420	57271
CG2901	1	-0.314	61335	60340
CG2901	2	0.082	51355	54579
CG11961	1	-0.378	27079	27369
CG11961	2	1.92 (active)	81059	70097
Nhe3 (Na[+]/H[+] hydrogen exchanger 3)	1	0.303	56242	45457
Nhe3 (Na[+]/H[+] hydrogen exchanger 3)	2	0.0686	55061	59449
CG1924	1	-0.255	60323	63359
CG1924	2	0.142	60207	67030
Nup107 (Nucleoporin 107kD)	1	0.554	62059	71711
CG12746	1	0.0798	31845	30627
CG12746	2	0.0308	46851	49760
Dscam1 (Down syndrome cell adhesion molecule 1)	1	0.154	73683	58300
Dscam1 (Down syndrome cell adhesion molecule 1)	2	0.372	54201	49675
Dscam1 (Down syndrome cell adhesion molecule 1)	3	-0.459	52452	56225
kek2 (kekkon 2)	1	0.841	60306	36911
kek2 (kekkon 2)	2	-0.146	51801	54287
Or65b (Odorant receptor 65b)	1	-0.103	41431	41239
Or65b (Odorant receptor 65b)	2	0.897	76239	76056
CG4465	1	-0.815	41702	39045
CG4465	2	-0.551	48269	54056
sei (seizure)	1	-0.795	39833	58629
CG15553	1	0.833	79799	79926
CG15553	2	0.397	68486	65262
PGRP-LF (Peptidoglycan recognition protein LF)	1	0.665	71625	71659
CCHa2-R (CCHamide-2 receptor)	1	0.0598	88503	74524
CCHa2-R (CCHamide-2 receptor)	2	-0.26	96052	67698
CG12376	1	-0.322	54064	58849
CG12376	2	-0.0443	51064	50875
CG5554	1	-0.172	52281	40571
CG5554	2	-0.014	58055	52984
Toll-7	1	0.478	68815	68709
Toll-7	2	-0.762	45371	49297
Piezo	1	-0.193	53018	53996
Piezo	2	0.313	70772	63130
CG2736	1	-0.448	27045	27405
CG2736	2	-0.0817	56105	62364

Active calls, of those listed so far:
target gene	reagent no.	mean Z score	ATP luminescence, replicate 1	ATP luminescence, replicate 2
CG11961	2	1.92 (active)	81059	70097
